Test results from PubChem BioAssay AID493014 (National Center for Advancing Translational Sciences (NCATS), 2011).
Among all 340,000 compounds or so, about 170 (0.05%) were called active. This list was built around the results that the source calls inconclusive (neither active nor inactive); the mix of calls is not that of the screen. Calls come from the whole dose curve; as a rule, active = well fitted inhibition curve with a large enough effect in the signal ratio, with a control signal flat (not every such curve was filed as active); inconclusive = small, poorly fitted or top-dose-only effect, or effect the other way, or a change in a side signal; inactive = flat fitted curve, though single readings scatter; the % refers to the signal ratio. Potencies of inconclusive entries are doubtful fits and often do not repeat.

test: qHTS Assay to Find Inhibitors of Chronic Active B-Cell Receptor Signaling; settings: ABC-DLBCL IkBa-CBG/CBR reporter, luminescence ratio (green luciferase fused to IkBa over red control in TMD8 lymphoma cells), 4 h; activity change, negative = inhibition: at 46.1 µM (top of the series);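 for activity change, negative = inhibition: plate controls were basal doxycycline-induced cells for no effect and cells given 10 µM MG132 for full effect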
Outline: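 TMD8 human ABC-DLBCL cells with doxycycline-inducible IκBα–green luciferase fusion and unfused red luciferase, in 0.5% FBS medium; compounds up to 46 uM, 4 h at 37C. Green/red luminescence ratio, filter-overlap corrected, fitted to concentration-response curves.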
Potency is the fitted concentration of half-maximal effect.

For `C(=C\N1CCCCCC1)/c1nnnn1-c1ccc(-c2ccccc2)cc1`, which activity change, negative = inhibition is on record?
Its activity change, negative = inhibition is “inactive”.

For `Cc1cc(Cl)ccc1OCC(=O)N1CCCCC1`, which activity change, negative = inhibition is on record?
The activity change, negative = inhibition was inconclusive: 8.33%.

With `Brc1cccc(Nc2nc(-c3cccnc3)cs2)c1` as the compound, how does the activity change, negative = inhibition read?
The activity change, negative = inhibition was inconclusive: 5.49%.

For `COc1cc(C(=O)N(CCN(C)C)CC2CCCN(Cc3ccccc3F)C2)ccc1C` (stereo not drawn), which activity change, negative = inhibition is on record?
The activity change, negative = inhibition was inconclusive: -8.22%.

Which Potency does the source give for `COc1ccc(OC)c(-c2cc(C(=O)Nc3c(C)nn(Cc4ccccc4)c3C)no2)c1` here?
Its Potency is inconclusive: 12.6 µM [falling, partial curve].

With `COc1ccc(-c2noc(CSc3nc4sc(C)c(C)c4c(=O)n3-c3ccccc3)n2)cc1OC` as the compound, how does the Potency read?
The Potency was inconclusive: 0.13 µM [rising, full curve, poor fit].

For `O=C(CCc1ccccc1)NC1(Cc2ccccc2)CCN(CCCc2ccccc2)C1=O` (stereo not drawn), which activity change, negative = inhibition is on record?
The activity change, negative = inhibition was inconclusive: -1.19%.

For `CCOC(=O)C1=C(C)C(c2ccc(OC)cc2)NC(=S)N1` (stereo not drawn), which activity change, negative = inhibition is on record?
Its activity change, negative = inhibition is “inactive”.

Which activity change, negative = inhibition does the source give for `CC1CC(C)CN(S(=O)(=O)c2ccc(C(=O)Nc3sccc3C(N)=O)cc2)C1` (stereo not drawn) here?
Its activity change, negative = inhibition is “inactive”.

For `O=C(Cc1ccccc1F)Nc1nc(-c2ccc(F)c(F)c2)cs1`, which activity change, negative = inhibition is on record?
The activity change, negative = inhibition was inconclusive: -12.9%.

Which activity change, negative = inhibition does the source give for `COc1ccc(S(=O)(=O)N2CCOCC2)cc1NC(=O)c1cc(=O)[nH]c2ccccc12` here?
The activity change, negative = inhibition was inconclusive: 2.66%.

With `CCOC(=O)N1CCC(NC(=O)c2ccc3c(c2)N(Cc2ccc(C)cc2)CCS3)CC1` as the compound, how does the activity change, negative = inhibition read?
The activity change, negative = inhibition was “inactive”.

Which activity change, negative = inhibition does the source give for `CC(C)CC1NC(=O)c2cc(Cl)ccc2-n2c1nc1ccc(F)cc1c2=O` (stereo not drawn) here?
The activity change, negative = inhibition was “inactive”.

For `CC(=O)N1N=C(c2ccc(Br)cc2)CC1c1cn(C)c2ccccc12` (stereo not drawn), which Potency is on record?
The Potency was inconclusive: 5.17 µM [falling, partial curve, poor fit].

Which activity change, negative = inhibition does the source give for `COc1cc2[nH]c3c(N4CCN(c5ccc(Cl)cc5)CC4)ncnc3c2cc1OC` here?
Its activity change, negative = inhibition is inconclusive: -0.411%.

With `Cc1cc(OC(=O)c2ccc(Cl)cc2Cl)c([N+](=O)[O-])c(=O)[nH]1` as the compound, how does the activity change, negative = inhibition read?
Its activity change, negative = inhibition is “inactive”.

Which activity change, negative = inhibition does the source give for `CCOC(=O)N1CCN(C(=O)c2cc3ccc(OC)cc3[nH]2)CC1` here?
The activity change, negative = inhibition was inconclusive: -2.12%.

Which activity change, negative = inhibition does the source give for `O=C(CN1C(=O)C2CC=CCC2C1=O)Nc1nc2ccccc2[nH]1` (stereo not drawn) here?
Its activity change, negative = inhibition is inconclusive: 6.39%.

For `COc1ccc(C)cc1S(=O)(=O)NCC(c1cccnc1)N1CCc2ccccc2C1` (stereo not drawn), which activity change, negative = inhibition is on record?
Its activity change, negative = inhibition is “inactive”.

With `CC(=O)Nc1ccc(S(=O)(=O)N[C@@H](C)C(=O)OCc2cc([N+](=O)[O-])cc3c2OCOC3)cc1` as the compound, how does the activity change, negative = inhibition read?
Its activity change, negative = inhibition is inconclusive: -3.48%.

With `O=C1C(Cl)=C(Nc2cccc(O)c2)C(=O)N1Cc1ccccc1` as the compound, how does the activity change, negative = inhibition read?
Its activity change, negative = inhibition is inconclusive: -0.6%.

For `CCOc1cccc(C(=O)Nc2ccc3oc(-c4cccnc4)nc3c2)c1`, which activity change, negative = inhibition is on record?
The activity change, negative = inhibition was inconclusive: -9.45%.

For `COc1ccc(C(=O)NCC(=O)OCC(=O)c2ccc3c(c2)OCCO3)cc1`, which activity change, negative = inhibition is on record?
Its activity change, negative = inhibition is “inactive”.
